In patent US20130302442A1, “METHODS OF USING (4S,4AS,5AR,12AS)-4-DIMETHYLAMINO-3,10,12,12A-TETRAHYDROXY-7-[(METHOXY(METHYL)AMINO)-METHYL]-1,11-DIOXO-1,4,4A,5,5A,6,11,12A-OCTAHYDRO-NAPHTHACENE-2-CARBOXYLIC ACID AMIDE” (priority 2012, published 2013):
For at least one compound, name, drawing or mass did not settle the structure.

Key:
Test in all cases: In vitro MIC testing, antibacterial spectrum of activity
S. aureus = format: cell-based, Staphylococcus aureus
S. agalactiae = format: cell-based; conditions: S. agalactiae (31 isolates)
S. pyogenes = format: cell-based; conditions: S. pyogenes (32 isolates)
E. faecalis = format: cell-based; conditions: E. faecalis [VSE] (31 isolates)
E. faecium = format: cell-based; conditions: E. faecium [VSE] (32 isolates)

With CCC[C@@H]1C[C@@H](C(=O)N[C@@H]([C@H]2O[C@H](SC)[C@H](O)[C@@H](O)[C@H]2O)[C@H](C)Cl)N(C)C1 [Clindamycin] the “MIC Range” value (S. aureus; S. aureus [MRSA] (31 isolates)) was 0.12->32, the “MIC Range” value (S. aureus; S. aureus [MSSA] (32 isolates)) was 0.12->32 and the “MIC Range” value (S. agalactiae) was 0.03->16. For the same molecule, the “MIC Range” value (S. pyogenes) was 0.03->16, the “MIC Range” value (E. faecalis) was 4->32 and the “MIC Range” value (E. faecium) was 0.12->32.
